Data as given in PubChem BioAssay AID1259254 (NCATS, 2017)
This is an unselected part of about 59,000 deposited reagents. About 1,550 of all reagents (2.6%) were called active. 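G2 share is only a proxy for re-replication; each gene was hit by three separate siRNAs, and active genes were retested.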 A number with no mark means an inactive call. The numbers tell different reagents against one gene apart. Not all columns of the deposit are shown. Not stated in the record: the amount of reagent.

- Screen: 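Genome-wide screen for genes that prevent DNA re-replication in cancer cells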 (primary screen)
- Cell system: human HCT116 colorectal cancer cells
- Knock-down reagent: single siRNA against human genes
- Timing: 3 days
- Measured: 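Nuclei stained with Hoechst and imaged; cell-cycle phase assigned by DNA content; G2 share scaled per plate, non-targeting siRNA 0%, GMNN siRNA 100%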
- Reading the numbers: G2 robust z-score: higher = more G2 cells, more excess DNA replication
- Rule for the call: 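An siRNA counts as active if its G2 robust z-score lies at least 5 MADs above the screen median; here such calls match roughly 38% of GMNN control or more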

SLC22A2 #1 gave G2 robust z-score -0.846.
Against SLC22A2 #2 the deposit lists G2 robust z-score -0.51.
After knock-down of SLC22A2 #3, the screen gave G2 robust z-score -0.28.
After knock-down of PCK1 (phosphoenolpyruvate carboxykinase 1) #1, the record shows G2 robust z-score 0.0105.
PCK1 (phosphoenolpyruvate carboxykinase 1) #2 scored G2 robust z-score 0.397.
After knock-down of PCK1 (phosphoenolpyruvate carboxykinase 1) #3, the record shows G2 robust z-score 3.67.
Against SPATC1 (spermatogenesis and centriole associated 1) #1, the entry reads G2 robust z-score -0.234.
Silencing of SPATC1 (spermatogenesis and centriole associated 1) #2 came out at: G2 robust z-score 0.0522.
Depletion of SPATC1 (spermatogenesis and centriole associated 1) #3 came out at: G2 robust z-score -0.354.
Silencing of TBC1D24 (TBC1 domain family member 24) #1 came out at: G2 robust z-score -0.415.
TBC1D24 (TBC1 domain family member 24) #2 scored G2 robust z-score -0.148.
Silencing of TBC1D24 (TBC1 domain family member 24) #3 resulted in: G2 robust z-score -0.818.

Laid out differently: results already given.
gene knocked down,siRNA no.,G2 robust z-score
SLC22A2,2,-0.51
SLC22A2,3,-0.28
PCK1 (phosphoenolpyruvate carboxykinase 1),1,0.0105

Additional records:
With knock-down of TSLIG1 (tRNA splicing ligase complex subunit 1) #1, the screen gave G2 robust z-score 6.78 (active).
After knock-down of TSLIG1 (tRNA splicing ligase complex subunit 1) #2, the screen gave G2 robust z-score 1.56.
Silencing of TSLIG1 (tRNA splicing ligase complex subunit 1) #3 gave: G2 robust z-score -0.0752.
Silencing of POM121L12 (POM121 transmembrane nucleoporin like 12) #1 resulted in: G2 robust z-score 1.01.
For POM121L12 (POM121 transmembrane nucleoporin like 12) #2, the entry reads G2 robust z-score -0.791.
After knock-down of POM121L12 (POM121 transmembrane nucleoporin like 12) #3, the screen gave G2 robust z-score 0.0107.
Against LINS1 (lines homolog 1) #1, the values are G2 robust z-score -0.407.
Silencing of LINS1 (lines homolog 1) #2 resulted in: G2 robust z-score 2.32.
Depletion of LINS1 (lines homolog 1) #3 resulted in: G2 robust z-score 2.55.
With knock-down of BMPER (BMP binding endothelial regulator) #1, the screen gave G2 robust z-score 1.71.
BMPER (BMP binding endothelial regulator) #2 scored G2 robust z-score -0.707.
For BMPER (BMP binding endothelial regulator) #3 the deposit lists G2 robust z-score 0.978.
Silencing of OR2T1 (olfactory receptor family 2 subfamily T member 1) #1 gave: G2 robust z-score 1.16.
For OR2T1 (olfactory receptor family 2 subfamily T member 1) #2 the deposit lists G2 robust z-score 2.57.
OR2T1 (olfactory receptor family 2 subfamily T member 1) #3 gave G2 robust z-score 0.652.
Silencing of RCSD1 (RCSD domain containing 1) #1 resulted in: G2 robust z-score -0.788.
With knock-down of RCSD1 (RCSD domain containing 1) #2, the screen gave G2 robust z-score 1.98.
For RCSD1 (RCSD domain containing 1) #3, the values are G2 robust z-score 6.53 (active).
